The other results are listed elsewhere or left out. The data scatter; read single values as rough.
Columns and labels:
[1] = compound: ClCC(=O)N[C@@H]1CCCc2ccccc12; assay: log2 mean competition ratio of IA-DTB cysteine labelling (DMSO/compound) (log2 ratio); higher = stronger cysteine engagement by compound; conditions: treatment time: 4 h, cell line lysate: HEK293T
Procedure: (§1)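 IA-DTB competitive cysteine chemoproteomics in HEK293T RIPA lysate. Lysates were treated with compound 29 or 30 at 50 or 200 µM for 4 h, then IA-DTB (500 µM, 1 h), trypsin-digested, NeutrAvidin-enriched and analysed by diaPASEF. Competition ratio = intensity DMSO / intensity compound (n=4 treated, n=64 DMSO); binding: mean log2 CR ≥ 1 and p ≤ 0.05 plus QC filters. Target is the cysteine site.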

The chains behind the UniProt entries cited, without tags or fusion partners. Where a name states a change or a piece, a line headed by the entry shows the natural chain unless it says otherwise. Residues count along the entry.
UniProt O15056: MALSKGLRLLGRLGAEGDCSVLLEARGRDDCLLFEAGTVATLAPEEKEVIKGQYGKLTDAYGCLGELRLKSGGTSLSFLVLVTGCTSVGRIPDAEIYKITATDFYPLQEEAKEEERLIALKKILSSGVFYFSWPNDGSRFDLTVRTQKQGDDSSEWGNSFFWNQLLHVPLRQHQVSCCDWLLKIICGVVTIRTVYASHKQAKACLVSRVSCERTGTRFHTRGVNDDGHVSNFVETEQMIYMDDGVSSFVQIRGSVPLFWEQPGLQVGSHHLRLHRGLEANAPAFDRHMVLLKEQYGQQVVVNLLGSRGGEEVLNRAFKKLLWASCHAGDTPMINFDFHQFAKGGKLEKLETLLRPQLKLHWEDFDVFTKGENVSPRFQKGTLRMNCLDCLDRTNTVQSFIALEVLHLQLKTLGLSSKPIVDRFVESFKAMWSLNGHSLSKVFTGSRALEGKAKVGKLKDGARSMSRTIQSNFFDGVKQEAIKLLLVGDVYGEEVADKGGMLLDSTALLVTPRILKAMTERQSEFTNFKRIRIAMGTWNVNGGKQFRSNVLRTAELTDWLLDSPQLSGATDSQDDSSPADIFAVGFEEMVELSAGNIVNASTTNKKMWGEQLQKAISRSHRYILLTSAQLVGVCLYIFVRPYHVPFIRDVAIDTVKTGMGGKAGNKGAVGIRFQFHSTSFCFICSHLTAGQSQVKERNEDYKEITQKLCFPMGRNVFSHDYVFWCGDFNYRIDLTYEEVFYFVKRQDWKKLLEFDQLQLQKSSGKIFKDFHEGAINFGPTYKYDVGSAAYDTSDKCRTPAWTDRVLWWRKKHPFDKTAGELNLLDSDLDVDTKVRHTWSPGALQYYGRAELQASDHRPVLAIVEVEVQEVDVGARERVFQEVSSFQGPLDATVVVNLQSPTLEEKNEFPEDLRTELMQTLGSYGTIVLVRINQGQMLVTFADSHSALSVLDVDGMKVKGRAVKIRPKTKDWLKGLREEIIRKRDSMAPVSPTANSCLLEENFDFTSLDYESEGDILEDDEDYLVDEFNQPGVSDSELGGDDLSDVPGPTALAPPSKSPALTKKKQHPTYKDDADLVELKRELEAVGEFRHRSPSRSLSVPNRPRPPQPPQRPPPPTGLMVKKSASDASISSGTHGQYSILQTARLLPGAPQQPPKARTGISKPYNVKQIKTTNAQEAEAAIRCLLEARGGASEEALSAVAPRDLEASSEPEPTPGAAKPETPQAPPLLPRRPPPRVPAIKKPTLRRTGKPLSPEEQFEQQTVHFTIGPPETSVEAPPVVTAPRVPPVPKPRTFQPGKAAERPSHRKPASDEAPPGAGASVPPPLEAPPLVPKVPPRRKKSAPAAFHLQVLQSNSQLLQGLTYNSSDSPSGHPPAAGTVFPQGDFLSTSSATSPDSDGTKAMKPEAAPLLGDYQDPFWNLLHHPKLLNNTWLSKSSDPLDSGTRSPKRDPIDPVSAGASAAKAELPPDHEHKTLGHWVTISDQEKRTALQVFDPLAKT
UniProt O15020: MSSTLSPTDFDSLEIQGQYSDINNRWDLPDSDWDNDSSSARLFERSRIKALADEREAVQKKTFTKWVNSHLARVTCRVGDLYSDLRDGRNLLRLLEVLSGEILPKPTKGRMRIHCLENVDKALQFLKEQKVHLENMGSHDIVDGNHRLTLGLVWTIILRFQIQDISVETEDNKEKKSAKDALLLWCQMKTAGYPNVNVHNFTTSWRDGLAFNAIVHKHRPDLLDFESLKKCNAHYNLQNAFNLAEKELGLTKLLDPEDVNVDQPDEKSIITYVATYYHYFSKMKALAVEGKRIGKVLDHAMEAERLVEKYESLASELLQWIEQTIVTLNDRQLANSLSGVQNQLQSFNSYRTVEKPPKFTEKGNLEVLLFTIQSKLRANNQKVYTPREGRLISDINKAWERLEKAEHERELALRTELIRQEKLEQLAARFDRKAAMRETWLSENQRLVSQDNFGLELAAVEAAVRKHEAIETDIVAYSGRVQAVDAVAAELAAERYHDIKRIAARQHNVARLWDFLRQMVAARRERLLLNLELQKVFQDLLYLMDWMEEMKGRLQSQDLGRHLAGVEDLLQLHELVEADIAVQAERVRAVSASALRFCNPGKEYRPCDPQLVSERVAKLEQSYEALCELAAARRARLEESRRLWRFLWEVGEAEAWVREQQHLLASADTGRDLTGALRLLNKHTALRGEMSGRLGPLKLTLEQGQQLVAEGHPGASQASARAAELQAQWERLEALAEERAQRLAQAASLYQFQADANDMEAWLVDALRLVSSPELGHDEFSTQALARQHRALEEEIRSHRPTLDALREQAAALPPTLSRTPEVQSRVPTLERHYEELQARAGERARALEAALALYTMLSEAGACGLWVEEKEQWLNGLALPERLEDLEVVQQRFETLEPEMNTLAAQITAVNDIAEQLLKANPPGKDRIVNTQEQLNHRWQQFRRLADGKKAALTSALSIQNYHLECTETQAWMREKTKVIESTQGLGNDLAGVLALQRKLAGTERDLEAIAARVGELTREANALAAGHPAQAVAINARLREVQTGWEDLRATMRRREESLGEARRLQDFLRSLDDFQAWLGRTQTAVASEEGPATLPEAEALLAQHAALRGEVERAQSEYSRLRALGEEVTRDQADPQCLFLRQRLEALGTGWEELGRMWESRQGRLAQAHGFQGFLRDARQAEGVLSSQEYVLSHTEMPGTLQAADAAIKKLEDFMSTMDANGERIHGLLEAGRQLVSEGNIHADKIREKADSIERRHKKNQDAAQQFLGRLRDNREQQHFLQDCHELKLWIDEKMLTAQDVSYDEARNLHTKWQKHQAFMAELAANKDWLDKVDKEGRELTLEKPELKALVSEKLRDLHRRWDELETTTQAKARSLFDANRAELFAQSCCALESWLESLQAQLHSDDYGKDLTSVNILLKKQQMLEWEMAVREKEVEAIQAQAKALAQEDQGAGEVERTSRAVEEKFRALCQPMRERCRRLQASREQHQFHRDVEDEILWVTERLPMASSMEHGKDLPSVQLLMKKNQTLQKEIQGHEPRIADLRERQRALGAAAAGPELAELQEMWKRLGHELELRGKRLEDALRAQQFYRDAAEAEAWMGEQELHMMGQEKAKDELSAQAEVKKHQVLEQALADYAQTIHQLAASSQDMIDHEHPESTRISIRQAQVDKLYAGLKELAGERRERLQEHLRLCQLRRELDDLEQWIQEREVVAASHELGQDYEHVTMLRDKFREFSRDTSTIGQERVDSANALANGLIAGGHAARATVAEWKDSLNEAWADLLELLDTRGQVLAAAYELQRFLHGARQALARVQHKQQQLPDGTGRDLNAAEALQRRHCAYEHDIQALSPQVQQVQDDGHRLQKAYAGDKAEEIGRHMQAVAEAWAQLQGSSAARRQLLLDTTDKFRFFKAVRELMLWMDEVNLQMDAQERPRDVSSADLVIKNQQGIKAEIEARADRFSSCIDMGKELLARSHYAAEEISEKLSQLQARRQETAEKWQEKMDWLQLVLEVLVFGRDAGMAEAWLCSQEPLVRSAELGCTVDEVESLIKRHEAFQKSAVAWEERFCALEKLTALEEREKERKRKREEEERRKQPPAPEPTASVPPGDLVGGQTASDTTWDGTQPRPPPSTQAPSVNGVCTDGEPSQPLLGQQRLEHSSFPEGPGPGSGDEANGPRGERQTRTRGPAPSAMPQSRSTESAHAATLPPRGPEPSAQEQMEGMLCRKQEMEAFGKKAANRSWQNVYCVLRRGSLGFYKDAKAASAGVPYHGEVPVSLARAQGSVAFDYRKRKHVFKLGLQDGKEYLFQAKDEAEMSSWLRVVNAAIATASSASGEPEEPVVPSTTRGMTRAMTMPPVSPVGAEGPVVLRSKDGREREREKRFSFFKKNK
UniProt Q96SB4, whole entry, looked up: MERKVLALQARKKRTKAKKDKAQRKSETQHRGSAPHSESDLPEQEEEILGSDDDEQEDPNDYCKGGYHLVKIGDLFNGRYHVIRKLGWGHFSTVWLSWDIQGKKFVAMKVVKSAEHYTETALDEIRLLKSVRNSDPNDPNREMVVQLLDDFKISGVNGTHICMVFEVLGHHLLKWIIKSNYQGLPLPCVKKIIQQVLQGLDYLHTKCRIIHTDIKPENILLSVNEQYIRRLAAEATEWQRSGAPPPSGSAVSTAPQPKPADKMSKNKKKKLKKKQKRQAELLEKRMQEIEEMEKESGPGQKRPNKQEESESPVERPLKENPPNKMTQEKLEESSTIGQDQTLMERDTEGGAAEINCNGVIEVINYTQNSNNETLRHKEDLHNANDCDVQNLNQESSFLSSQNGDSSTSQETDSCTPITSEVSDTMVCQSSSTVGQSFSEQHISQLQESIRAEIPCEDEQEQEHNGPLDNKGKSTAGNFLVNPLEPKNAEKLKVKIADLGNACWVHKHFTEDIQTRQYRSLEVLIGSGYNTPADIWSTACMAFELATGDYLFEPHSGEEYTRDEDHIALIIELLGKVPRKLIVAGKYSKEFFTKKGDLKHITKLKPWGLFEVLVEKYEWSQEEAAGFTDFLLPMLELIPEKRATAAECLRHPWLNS
UniProt Q96SB4, 346-375: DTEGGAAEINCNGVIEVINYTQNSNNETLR
UniProt Q9Y274: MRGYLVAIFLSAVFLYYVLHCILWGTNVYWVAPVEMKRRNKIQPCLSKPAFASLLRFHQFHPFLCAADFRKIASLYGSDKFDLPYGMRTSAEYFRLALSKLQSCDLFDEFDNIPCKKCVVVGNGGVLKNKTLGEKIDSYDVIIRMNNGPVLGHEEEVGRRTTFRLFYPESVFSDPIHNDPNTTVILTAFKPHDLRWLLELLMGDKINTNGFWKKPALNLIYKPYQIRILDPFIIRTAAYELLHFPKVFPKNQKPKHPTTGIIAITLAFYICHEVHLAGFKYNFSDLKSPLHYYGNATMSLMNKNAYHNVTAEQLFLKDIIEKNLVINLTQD
UniProt P49842: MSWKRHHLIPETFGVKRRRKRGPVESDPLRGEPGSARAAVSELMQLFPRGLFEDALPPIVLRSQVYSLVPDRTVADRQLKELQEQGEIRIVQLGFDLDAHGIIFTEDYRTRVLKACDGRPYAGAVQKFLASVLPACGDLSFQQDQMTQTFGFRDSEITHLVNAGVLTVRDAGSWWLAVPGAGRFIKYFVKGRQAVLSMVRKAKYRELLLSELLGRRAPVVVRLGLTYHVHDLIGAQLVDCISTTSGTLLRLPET
UniProt O15269: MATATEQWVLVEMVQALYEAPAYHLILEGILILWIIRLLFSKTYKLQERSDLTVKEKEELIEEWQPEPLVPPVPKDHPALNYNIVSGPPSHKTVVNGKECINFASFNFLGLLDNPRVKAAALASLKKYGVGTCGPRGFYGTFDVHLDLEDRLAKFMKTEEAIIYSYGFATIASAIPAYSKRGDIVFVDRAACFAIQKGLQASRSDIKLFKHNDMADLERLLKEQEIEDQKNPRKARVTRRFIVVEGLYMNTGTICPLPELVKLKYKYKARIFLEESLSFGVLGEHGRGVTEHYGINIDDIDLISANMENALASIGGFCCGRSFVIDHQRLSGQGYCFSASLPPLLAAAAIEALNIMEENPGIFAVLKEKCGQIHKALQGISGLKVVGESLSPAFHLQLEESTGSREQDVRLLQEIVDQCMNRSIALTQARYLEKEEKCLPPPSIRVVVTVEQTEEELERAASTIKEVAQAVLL
UniProt Q13247: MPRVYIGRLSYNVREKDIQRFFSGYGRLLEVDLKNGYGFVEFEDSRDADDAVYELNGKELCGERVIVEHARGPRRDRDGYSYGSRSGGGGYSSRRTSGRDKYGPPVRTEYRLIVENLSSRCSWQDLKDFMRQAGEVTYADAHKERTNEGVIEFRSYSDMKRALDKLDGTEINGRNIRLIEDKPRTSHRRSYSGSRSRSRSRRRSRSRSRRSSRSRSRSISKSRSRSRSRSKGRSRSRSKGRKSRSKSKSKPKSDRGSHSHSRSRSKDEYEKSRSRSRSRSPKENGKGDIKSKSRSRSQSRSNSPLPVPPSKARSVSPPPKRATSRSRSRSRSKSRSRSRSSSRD
UniProt Q9UHB9: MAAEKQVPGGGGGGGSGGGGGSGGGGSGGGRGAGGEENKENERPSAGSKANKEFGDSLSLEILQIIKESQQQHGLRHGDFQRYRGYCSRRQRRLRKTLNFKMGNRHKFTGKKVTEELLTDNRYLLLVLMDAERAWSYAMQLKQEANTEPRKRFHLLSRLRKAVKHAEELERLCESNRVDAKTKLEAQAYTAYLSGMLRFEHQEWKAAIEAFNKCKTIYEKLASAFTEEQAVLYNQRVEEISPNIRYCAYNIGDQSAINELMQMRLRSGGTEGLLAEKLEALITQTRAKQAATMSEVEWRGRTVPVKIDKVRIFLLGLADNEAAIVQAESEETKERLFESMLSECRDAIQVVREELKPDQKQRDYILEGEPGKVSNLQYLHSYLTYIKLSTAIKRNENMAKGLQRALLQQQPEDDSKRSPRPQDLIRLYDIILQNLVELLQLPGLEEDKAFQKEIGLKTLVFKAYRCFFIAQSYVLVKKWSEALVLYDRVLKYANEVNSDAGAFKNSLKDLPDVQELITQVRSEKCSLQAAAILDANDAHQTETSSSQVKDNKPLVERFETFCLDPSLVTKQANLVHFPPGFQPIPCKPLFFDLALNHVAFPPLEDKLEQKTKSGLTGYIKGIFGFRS

[2] = compound: ClCC(=O)N[C@H]1CCCc2ccccc12; assay: as above; conditions: treatment time: 4 h, cell line lysate: HEK293T
Procedure: as §1

| Target | log2 mean competition ratio ([1]; 50 µM) | log2 mean competition ratio ([1]; 200 µM) | log2 mean competition ratio ([2]; 50 µM) | log2 mean competition ratio ([2]; 200 µM) |
| --- | --- | --- | --- | --- |
| SSX2IP C137 (UniProt Q9Y2D8) | 0.226 | 0.239 | -0.328 | 0.0268 |
| SYNJ2 C19 (UniProt O15056) | -0.298 | -0.188 | -0.183 | -0.141 |
| SUCLG1 C60 (UniProt P53597) | 0.138 | -0.151 | 0.326 | -0.149 |
| SPTBN2 C2226 (UniProt O15020) | -0.422 | -0.084 | -0.457 | 0.551 |
| STIM1 C56 (UniProt Q13586) | 0.0819 | 0.273 | -0.541 | -0.0735 |
| SPG7 C627 (UniProt Q9UQ90) | 0.146 | 0.085 | -0.0789 | -0.0176 |
| STAT3 C108 (UniProt P40763) | -0.0597 | 0.0152 | -0.26 | 0.141 |
| SRPK1 C188 (UniProt Q96SB4) | -0.0866 | -0.00179 | 0.126 | -0.0693 |
| SPAST C448 (UniProt Q9UBP0) | -0.357 | 0.0897 | 0.267 | -0.0283 |
| STAM C33 | -0.2 | 0.545 | 0.0995 | -0.00662 |
| SPTY2D1 C535 (UniProt Q68D10) | 0.0334 | -0.0631 | -0.266 | -0.0962 |
| SVBP C58 (UniProt Q8N300) | 0.0387 | 0.286 | 0.211 | 0.102 |
| SRPK1 C647 (UniProt Q96SB4) | -0.347 | 0.107 | -0.236 | -0.0928 |
| SUGP2 C183 (UniProt Q8IX01) | -0.192 | 0.112 | -0.0672 | 0.0943 |
| SUPT20H C289 (UniProt Q8NEM7) | 0.273 | 0.421 | -0.291 | 0.338 |
| SPECC1L C162 (UniProt Q69YQ0) | -0.1 | 0.169 | -0.104 | 0.199 |
| SRRT C490 (UniProt Q9BXP5) | 0.0215 | 0.138 | 0.156 | 0.112 |
| SRRD C137 (UniProt Q9UH36) | 0.146 | -0.458 | 0.141 | -0.158 |
| SPIRE2 C490 (UniProt Q8WWL2) | 0.0666 | 0.131 | -0.275 | -0.0829 |
| ST3GAL6 C118 (UniProt Q9Y274) | -0.0924 | 0.00488 | -0.199 | 0.216 |
| SRR C217 (UniProt Q9GZT4) | -0.138 | 0.0622 | -0.0825 | -0.0243 |
| STAT2 C529 (UniProt P52630) | -0.0139 | 0.165 | 0.047 | 0.0356 |
| STRAP C340 (UniProt Q9Y3F4) | -0.0944 | -0.259 | 0.0561 | -0.0277 |
| SYNE2 C2935 (UniProt Q8WXH0) | 0.0451 | -0.0572 | -0.22 | 0.0406 |
| SUPT5H C626 (UniProt O00267) | 0.645 | 0.864 | 0.842 | 0.532 |
| STK19 C230 (UniProt P49842) | 0.0982 | -0.0647 | 0.0282 | -0.0778 |

| Target | log2 mean competition ratio ([1]; 50 µM) | log2 mean competition ratio ([1]; 200 µM) | log2 mean competition ratio ([2]; 50 µM) | log2 mean competition ratio ([2]; 200 µM) |
| --- | --- | --- | --- | --- |
| SRRT C412 (UniProt Q9BXP5) | 0.369 | -0.133 | 0.391 | -0.267 |
| STIP1 C26 | 0.0991 | 0.145 | -0.0329 | -0.244 |
| SRCAP C3036 (UniProt Q6ZRS2) | -0.126 | 0.425 | -0.148 | 0.522 |
| SRGAP2C C205 | -0.0866 | 0.138 | -0.404 | 0.0682 |
| SRA1 C122 (UniProt Q9HD15) | 0.00214 | 0.088 | 0.271 | 0.0875 |
| STK33 C467 (UniProt Q9BYT3) | 0.0898 | -0.428 | 0.273 | -0.0134 |
| STEAP2 C168 | -0.185 | 0.243 | -0.0902 | 0.0567 |
| SPG11 C1424 (UniProt Q96JI7) | -0.274 | 0.413 | -0.159 | 0.197 |
| SUPT6H C1435 (UniProt Q7KZ85) | 0.0168 | 0.114 | -0.11 | 0.167 |
| STIM2 C725 (UniProt Q9P246) | 0.402 | -0.0758 | 0.0664 | 0.0963 |
| STAG2 C632 (UniProt Q8N3U4) | -0.183 | -0.108 | 0.000746 | -0.118 |
| SPTLC1 C133 (UniProt O15269) | 0.0557 | -0.112 | 0.148 | -0.12 |
| SPDL1 C490 (UniProt Q96EA4) | 0.119 | -0.392 | -0.421 | -0.348 |
| SYPL1 C193 (UniProt Q16563) | -0.0707 | 0.125 | 0.00587 | -0.0825 |
| STRBP C83 (UniProt Q96SI9) | -0.0243 | -0.21 | 0.065 | -0.0575 |
| SRPK1 C356 (UniProt Q96SB4) | -0.527 | -0.0119 | 0.142 | -0.236 |
| STIM2 C698 (UniProt Q9P246) | 0.499 | 0.0858 | 0.395 | -0.123 |
| SRRM2 C872 (UniProt Q9UQ35) | 0.0458 | 0.0608 | 0.0705 | 0.168 |
| SRSF6 C121 (UniProt Q13247) | 0.0256 | -0.119 | 0.155 | -0.0315 |
| SRRM2 C1016 (UniProt Q9UQ35) | 0.103 | 0.0466 | 0.0269 | 0.128 |
| SPTBN2 C2043 (UniProt O15020) | 0.249 | -0.174 | -0.0503 | -0.00406 |
| STK24 C394 | -0.00504 | -0.0803 | 0.0638 | 0.0843 |
| SYMPK C578 (UniProt Q92797) | 0.0731 | 0.0121 | -0.0606 | -0.0407 |
| SPOUT1 C209 (UniProt Q5T280) | 0.348 | 0.143 | -0.23 | -0.162 |
| STX18 C107 (UniProt Q9P2W9) | 0.387 | 0.0529 | 0.306 | 0.00588 |
| SPCS2_(C17,C17,C26,C26) (UniProt Q15005) | -0.244 | 0.447 | -0.253 | 0.395 |

| Target | log2 mean competition ratio ([1]; 50 µM) | log2 mean competition ratio ([1]; 200 µM) | log2 mean competition ratio ([2]; 50 µM) | log2 mean competition ratio ([2]; 200 µM) |
| --- | --- | --- | --- | --- |
| STXBP4 C544 (UniProt Q6ZWJ1) | -0.109 | -0.283 | -0.142 | 0.481 |
| SYNJ1 C374 (UniProt O43426) | -0.193 | 0.0687 | -0.0753 | -0.00214 |
| SYNE2 C1235 (UniProt Q8WXH0) | 0.193 | 0.0708 | -0.47 | 0.128 |
| SRP68 C344 (UniProt Q9UHB9) | 0.139 | 0.0971 | 0.0528 | 0.185 |
| SPATA2 C41 | 0.0278 | 0.0891 | 0.195 | 0.195 |
| SRGAP2 C486 | 0.0537 | 0.197 | 0.46 | 0.282 |
| SVIL C671 (UniProt O95425) | 0.0675 | 0.144 | -0.22 | -0.0706 |
| SPEN C1134 (UniProt Q96T58) | 0.0239 | 0.408 | -0.277 | 0.237 |
| STX17 C290 (UniProt P56962) | -0.181 | 0.111 | -0.349 | 0.0295 |
| STK38 C234 (UniProt Q15208) | 0.252 | 0.0682 | -0.0994 | 0.134 |
| SUN1 C499 (UniProt O94901) | 0.0577 | -0.0142 | 0.0318 | 0.022 |
| SRC C403 (UniProt P12931) | -0.178 | -0.0639 | -0.674 | -0.0231 |
| STK10 C947 (UniProt O94804) | -0.0448 | -0.044 | -0.171 | -0.177 |
| STX16 C279 (UniProt O14662) | -0.0686 | -0.156 | -0.098 | -0.261 |
| SPATA5 C27 (UniProt Q8NB90) | -0.232 | 0.0423 | 0.0111 | -0.0626 |
| SPICE1 C453 (UniProt Q8N0Z3) | -0.0314 | 0.111 | 0.141 | 0.0237 |
| STIM1 C49 (UniProt Q13586) | -0.377 | 0.248 | -0.167 | 0.298 |
| SRBD1 C762 (UniProt Q8N5C6) | 0.277 | 0.0582 | 0.316 | 0.101 |
| SRPRA C253 (UniProt P08240) | 0.404 | -0.124 | 0.45 | 0.107 |
| SUCO C315 (UniProt Q9UBS9) | 0.0961 | 0.0339 | -0.261 | 0.299 |
| STK38L C362 (UniProt Q9Y2H1) | -0.0466 | 0.0239 | -0.412 | 0.0596 |
| SURF1 C125 (UniProt Q15526) | -0.00663 | 0.0463 | -0.0969 | -0.32 |
| SS18L1 C47 (UniProt O75177) | 0.271 | 0.217 | -0.164 | 0.133 |
| STT3A C193 (UniProt P46977) | 0.655 | 0.613 | 0.395 | 0.456 |

Single records (already shown). Order of values: log2 mean competition ratio ([1]; 50 µM) | log2 mean competition ratio ([1]; 200 µM) | log2 mean competition ratio ([2]; 50 µM) | log2 mean competition ratio ([2]; 200 µM)
SUCO C315 (UniProt Q9UBS9) is listed as 0.0961 | 0.0339 | -0.261 | 0.299
STXBP4 C544 (UniProt Q6ZWJ1) is listed as -0.109 | -0.283 | -0.142 | 0.481
